PubChem BioAssay AID330 (DTP/NCI, 2004)
The list shows only some results of the screen, not a fair sample: it gathers tests that were run many times, whatever their T/C, doses with no T/C, and many T/C values between a quarter and a half above the control. Further doses and runs are listed elsewhere. T/C is the treated group as % of the vehicle group. Some doses have a count of surviving animals in place of a T/C: the source files T/C as zero there, which appears to mark a toxic dose or a test without result, not a measured value. Some survivor counts are full or nearly so, which does not show that the dose was tolerated: the source hardly ever lists a survival T/C far under the control, and the zero likely stands for such cases as well. Counts of survivors are from the toxicity check (mostly the fifth day) where no day follows; animals may have died later. Schedules are NCI's codes, taken here to give the interval after Q, in days (D) or hours (H), and the number of doses after X. Some doses were run more than once; their values stand side by side, smallest first. For survival time, the PubChem record calls one and a half times the control and up active, and a quarter to a half above the control has no call in these data; cut-offs in other NCI protocols can differ. Some T/C values are followed by the survivors on the day toxicity was checked, most often the fifth; where none is given, no animal had died by that day.

Test system: P388 leukemia ip, CD2F1 mice, survival T/C
Experiment: NCI In Vivo Anticancer Drug Screen. Data for tumor model P388 Leukemia (intraperitoneal) in CD2F1 (CDF1) mice
Conditions: T/C endpoint: median survival time, higher T/C = longer survival
[1] = dose: 25.0 mg/kg/injection, schedule: Q01DX001 (ip), vehicle: saline with Tween-80
[2] = dose: 50.0 mg/kg/injection, schedule: Q01DX001 (ip), vehicle: saline with Tween-80
[3] = dose: 100.0 mg/kg/injection, schedule: Q01DX005 (ip), vehicle: saline with Tween-80
[4] = dose: 200.0 mg/kg/injection, schedule: Q01DX005 (ip), vehicle: saline with Tween-80
[5] = dose: 200.0 mg/kg/injection, schedule: Q01DX009 (ip), vehicle: saline with Tween-80
[6] = dose: 400.0 mg/kg/injection, schedule: Q01DX001 (ip), vehicle: Klucel (hydroxypropylcellulose) (HPC)
[7] = dose: 100.0 mg/kg/injection, schedule: Q04DX002 (ip), vehicle: saline with Tween-80
[8] = dose: 200.0 mg/kg/injection, schedule: Q04DX002 (ip), vehicle: saline with Tween-80
[9] = dose: 200.0 mg/kg/injection, schedule: Q01DX001 (ip), vehicle: Klucel (hydroxypropylcellulose) (HPC)
[10] = dose: 100.0 mg/kg/injection, schedule: Q01DX009 (ip), vehicle: saline with Tween-80
[11] = dose: 400.0 mg/kg/injection, schedule: Q01DX009 (ip), vehicle: saline with Tween-80
[12] = dose: 200.0 mg/kg/injection, schedule: Q01DX009 (ip), vehicle: saline
[13] = dose: 400.0 mg/kg/injection, schedule: Q01DX009 (ip), vehicle: saline
[14] = dose: 50.0 mg/kg/injection, schedule: Q01DX009 (ip), vehicle: saline
[15] = dose: 100.0 mg/kg/injection, schedule: Q01DX009 (ip), vehicle: saline
[16] = dose: 50.0 mg/kg/injection, schedule: Q01DX009 (ip), vehicle: saline with Tween-80

## O=NN(CCCl)C(=O)N1CCCOC1=O
[1]
  survivor count: 5 of 6
dose: 25.0 mg/kg/injection, schedule: Q01DX005 (ip), vehicle: saline with Tween-80
  survivor count: 6 of 6
[2]
  T/C: 135 % of control
  survivor count: 0 of 6
dose: 50.0 mg/kg/injection, schedule: Q01DX005 (ip), vehicle: saline with Tween-80
  survivor count: 1 of 6
dose: 100.0 mg/kg/injection, schedule: Q01DX001 (ip), vehicle: saline with Tween-80
  survivor count: 0 of 6 and 1 of 5
[3]
  survivor count: 0 of 6
dose: 200.0 mg/kg/injection, schedule: Q01DX001 (ip), vehicle: saline with Tween-80
  survivor count: 0 of 5
dose: 400.0 mg/kg/injection, schedule: Q01DX001 (ip), vehicle: saline with Tween-80
  survivor count: 0 of 5

## N#Cc1c(NC(=O)Nc2cc(C(F)(F)F)ccc2Cl)sc(=S)c2c1CCCC2
[4]
  survivor count: 1 of 5

## COc1ccc(-c2nc(C)cc3cc(OC)c(OC)cc23)cc1OC
dose: 200.0 mg/kg/injection, schedule: Q01DX009 (ip), vehicle: water
  survivor count: 1 of 6

## Nc1nc(N)c(Cl)c(Nc2cccc(Cl)c2)n1
dose: 12.5 mg/kg/injection, schedule: Q01DX001 (ip), vehicle: saline with Tween-80
  survivor count: 0 of 6
[1]
  survivor count: 0 of 6

## FC(F)(F)C1(C(F)(F)F)O[Te]2(OC1(C(F)(F)F)C(F)(F)F)OC(C(F)(F)F)(C(F)(F)F)C(C(F)(F)F)(C(F)(F)F)O2
dose: 25.0 mg/kg/injection, schedule: Q01DX005 (ip), vehicle: Klucel (hydroxypropylcellulose) (HPC)
  survivor count: 0 of 6
dose: 50.0 mg/kg/injection, schedule: Q01DX005 (ip), vehicle: Klucel (hydroxypropylcellulose) (HPC)
  survivor count: 0 of 6
dose: 100.0 mg/kg/injection, schedule: Q01DX005 (ip), vehicle: Klucel (hydroxypropylcellulose) (HPC)
  survivor count: 0 of 6
dose: 200.0 mg/kg/injection, schedule: Q01DX005 (ip), vehicle: Klucel (hydroxypropylcellulose) (HPC)
  survivor count: 0 of 6

## COc1cccc2c1C(=O)c1c(O)c3c(c(O)c1C2=O)C[C@@](O)(C(C)=O)CC3OC1CC(N/C(C)=C/C(=O)c2ccccc2)C(O)C(C)O1 (stereo partly specified)
dose: 100.0 mg/kg/injection, schedule: Q04DX003 (ip), vehicle: saline with Tween-80
  T/C: 132 % of control
dose: 200.0 mg/kg/injection, schedule: Q04DX003 (ip), vehicle: saline with Tween-80
  T/C: 133 % of control

## COc1nc2c(nc(N)n2C2OC(COC(C)=O)C(OC(C)=O)C(OC(C)=O)C2OC(C)=O)c(=O)n1C (stereo unspecified)
dose: 120.0 mg/kg/injection, schedule: Q01DX005 (ip), vehicle: saline
  survivor count: 5 of 6

## COC(=O)c1[nH]c(=O)c2cccnc2c1O
[5]
  survivor count: 3 of 6

## CN(C)Cc1cc2c(=O)[nH]c(N)nc2[nH]1
[6]
  survivor count: 0 of 6

## O=C(Nc1nncs1)c1ccncc1
[7]
  T/C: 129 % of control [5 of 6 alive]
[8]
  T/C: 127 % of control
dose: 600.0 mg/kg/injection, schedule: Q04DX002 (ip), vehicle: saline with Tween-80
  survivor count: 5 of 6

## Cn1c2ccccc2c2nnc(N/N=C/c3ccncc3)nc21
[7]
  survivor count: 6 of 6
[8]
  survivor count: 6 of 6

## CC1(C)CC(=O)C(CSc2ccccc2)C(=O)C1
dose: 100.0 mg/kg/injection, schedule: Q01DX001 (ip), vehicle: Klucel (hydroxypropylcellulose) (HPC)
  survivor count: 0 of 6
[9]
  survivor count: 1 of 6

## CC(C)=CCCC(C)(OC1OC(COC2OCC(O)C(O)C2O)C(O)C(O)C1O)C1CCC2(C)C1C(O)CC1C3(C)CCC(OC4OC(CO)C(O)C(O)C4OC4OC(CO)C(O)C(O)C4O)C(C)(C)C3CCC12C (stereo unspecified)
dose: 300.0 mg/kg/injection, schedule: Q01DX009 (ip), vehicle: Klucel (hydroxypropylcellulose) (HPC)
  survivor count: 0 of 6

## COc1cc(C(=O)OC2c3ccccc3CCC2N(C)C)cc(OC)c1OC (stereo unspecified)
[10]
  survivor count: 3 of 6
[5]
  survivor count: 2 of 6

## CCN(CC)c1nc(N(CC)CC)nc(N(CC)CC)n1
[11]
  survivor count: 10 of 10

## O=C(Nc1cccc2ccccc12)Oc1cccc2cccnc12
[5]
  survivor count: 2 of 6

## COC(=O)C1C2CCCN2OC1(C)CO (stereo unspecified)
dose: 30.0 mg/kg/injection, schedule: Q01DX005 (ip), vehicle: saline
  T/C: 134 % of control
dose: 60.0 mg/kg/injection, schedule: Q01DX005 (ip), vehicle: saline
  T/C: 132 % of control

## NCC(=O)c1ccc2ccccc2c1
dose: 240.0 mg/kg/injection, schedule: Q01DX005 (ip), vehicle: Klucel (hydroxypropylcellulose) (HPC)
  survivor count: 0 of 6

## CCN(CC)CCNc1c(OC)c(OC)cc2nccnc12
dose: 200.0 mg/kg/injection, schedule: Q01DX005 (ip), vehicle: suspension in saline
  survivor count: 3 of 5

## COC(C)(C)O/N=C(\C[n+]1ccccc1)c1ccccc1
dose: 50.0 mg/kg/injection, schedule: Q01DX009 (ip), vehicle: water
  survivor count: 3 of 6

## CN(C)CCN(C)CCC(=O)/C=C/c1ccccc1
dose: 100.0 mg/kg/injection, schedule: Q01DX001 (ip), vehicle: saline
  survivor count: 0 of 6
dose: 200.0 mg/kg/injection, schedule: Q01DX001 (ip), vehicle: saline
  survivor count: 0 of 6
dose: 400.0 mg/kg/injection, schedule: Q01DX001 (ip), vehicle: saline
  survivor count: 0 of 6

## CN(N=O)C(=O)NCCNC(=O)C1OC(n2ccc(=O)[nH]c2=O)C(O)C1O (stereo unspecified)
[12]
  T/C: 128 % of control
[13]
  T/C: 126 % of control

## C=C(C)C(=NC(C)(C)C)Nc1ccccc1Cl
[5]
  T/C: 129 % of control

## CNC(=O)n1cccc(OC)c1=O
[14]
  T/C: 101, 103, 104, 107, 116 % of control
[15]
  T/C: 98, 102, 105, 119, 130 % of control
[12]
  T/C: 106, 108, 111, 155 % of control
  survivor count: 2 of 6
[13]
  survivor count: 0 of 6 and 3 of 6

## c1ccc(CC[n+]2ccccc2)cc1
[14]
  survivor count: 2 of 6
[15]
  survivor count: 0 of 6

## O=C1NC(=S)NNC12CCCCC2
dose: 50.0 mg/kg/injection, schedule: Q01DX009 (ip), vehicle: Klucel (hydroxypropylcellulose) (HPC)
  survivor count: 6 of 6
dose: 100.0 mg/kg/injection, schedule: Q01DX009 (ip), vehicle: Klucel (hydroxypropylcellulose) (HPC)
  T/C: 125 % of control

## CCCC(=O)OC1CC2CC(O)CC(=O)OC(C(C)O)CC3C/C(=C\C(=O)OC)C(OC(C)=O)C(O)(O3)C(C)(C)/C=C/C3C/C(=C\C(=O)OC)CC(CC(O)(O2)C1(C)C)O3 (stereo unspecified)
dose: 0.03 mg/kg/injection, schedule: Q01DX009 (ip), vehicle: saline + alcohol
  T/C: 133 % of control
dose: 0.05 mg/kg/injection, schedule: Q01DX009 (ip), vehicle: saline + alcohol
  T/C: 135 % of control
dose: 0.1 mg/kg/injection, schedule: Q01DX009 (ip), vehicle: saline + alcohol
  T/C: 147 % of control

## CN(C)c1ncnc2c1ncn2C1OC(CO)C(N)C1O (stereo unspecified)
dose: 33.0 mg/kg/injection, schedule: Q01DX009 (ip), vehicle: saline sonified
  T/C: 131 % of control [5 of 6 alive]
dose: 50.0 mg/kg/injection, schedule: Q01DX009 (ip), vehicle: saline sonified
  T/C: 136 % of control
[16]
  T/C: 127 % of control
[10]
  survivor count: 6 of 6
[15]
  survivor count: 5 of 6
[5]
  survivor count: 4 of 6
[11]
  survivor count: 2 of 6

## O=P1(Oc2ccccc2)NC2CCCCC2N1 (stereo unspecified)
[9]
  survivor count: 1 of 6
[6]
  survivor count: 0 of 6

## CCN(CC)CCNC(=S)N/N=C(C)\C(C)=N/NC(=S)NCCN(CC)CC
[16]
  survivor count: 1 of 6
[10]
  survivor count: 0 of 6
[5]
  survivor count: 0 of 6

## [CH3][Ge]([CH3])([CH3])[N]=S=[N][Ge]([CH3])([CH3])[CH3]
[3]
  survivor count: 1 of 6
[4]
  survivor count: 0 of 6
